Measured values reported in patent US12528837B2 (priority 2018, dated 2026).

Experiment: general procedure: Fmoc solid-phase peptide synthesis; chlorotrityl chloride (CTC)-resin pre-loaded with Fmoc-Thr(tBu)-OH; Fmoc-Thr(tBu)-PEG-PS resin; HATU/DIPEA
Details: late stage modification step

“H-Thr(O-^tBu)-Dap(BOC)-Cyclo[Dab-Dab(BOC)-Dleu-L-Abu-Dab(BOC)-Dab(BOC)-Thr(O-tBu)]” showed a step yield of 96%.
